Literature values as cited in patent publication US9849143B2, “Broad spectrum antiviral and methods of use” (The Burlington HC Research Group, Inc., priority 2006, dated 2017).
Some of these results come from one statement about several compounds together.

Conditions: some in vitro studies; cited from earlier work

For NCCCNCCS [WR-1065, 2-(3-aminopropylamino)ethanethiol], the “concentration at which efficacious” value is listed as no less than 0.4 µM.
